Measured values published in PMC5097173.
No constants are given. Whether binding was seen depends on the method and setting. In cells and extracts the contact can be indirect. Some entries that bind do so weakly or less than the wild type. For part of these data: Tags and fused reporters may be left off the sequences shown.

Sequences of proteins named here, by UniProt entry; tags and fusion partners are left off. A change or cut given only in a name is not applied to a line headed by its entry.
UniProt O88907: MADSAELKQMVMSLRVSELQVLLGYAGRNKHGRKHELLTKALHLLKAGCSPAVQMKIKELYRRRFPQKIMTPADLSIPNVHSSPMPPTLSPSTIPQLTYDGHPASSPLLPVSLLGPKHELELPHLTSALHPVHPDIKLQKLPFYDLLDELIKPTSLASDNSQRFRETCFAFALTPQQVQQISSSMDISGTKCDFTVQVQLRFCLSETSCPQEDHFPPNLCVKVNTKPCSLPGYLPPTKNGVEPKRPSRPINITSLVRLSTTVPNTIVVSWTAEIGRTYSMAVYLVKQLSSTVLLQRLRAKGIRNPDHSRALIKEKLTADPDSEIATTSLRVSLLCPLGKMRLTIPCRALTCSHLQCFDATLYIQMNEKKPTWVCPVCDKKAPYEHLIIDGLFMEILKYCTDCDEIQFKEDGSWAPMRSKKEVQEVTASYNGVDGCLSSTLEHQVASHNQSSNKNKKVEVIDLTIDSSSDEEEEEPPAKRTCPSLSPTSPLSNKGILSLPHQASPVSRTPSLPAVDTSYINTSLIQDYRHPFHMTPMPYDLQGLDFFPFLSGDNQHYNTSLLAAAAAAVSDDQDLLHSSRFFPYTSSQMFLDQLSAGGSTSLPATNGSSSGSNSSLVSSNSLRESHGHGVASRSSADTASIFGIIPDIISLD
UniProt Q9NS91: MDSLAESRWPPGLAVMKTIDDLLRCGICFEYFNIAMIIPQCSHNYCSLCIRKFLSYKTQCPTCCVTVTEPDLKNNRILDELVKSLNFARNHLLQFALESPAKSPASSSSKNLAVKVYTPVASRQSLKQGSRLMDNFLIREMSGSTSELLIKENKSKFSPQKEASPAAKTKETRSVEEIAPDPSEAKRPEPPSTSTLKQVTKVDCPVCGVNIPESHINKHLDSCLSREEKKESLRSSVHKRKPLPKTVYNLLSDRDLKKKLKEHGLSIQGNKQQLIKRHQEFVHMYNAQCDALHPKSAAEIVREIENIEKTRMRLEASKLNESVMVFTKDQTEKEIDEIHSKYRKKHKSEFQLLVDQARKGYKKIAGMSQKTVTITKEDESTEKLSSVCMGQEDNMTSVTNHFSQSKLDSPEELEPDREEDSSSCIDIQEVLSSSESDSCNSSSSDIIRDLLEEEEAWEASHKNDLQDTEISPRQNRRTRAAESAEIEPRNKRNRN

Key:
Flag-mPIAS1 = Flag-mPIAS1 (UniProt O88907); experiment: co-IP; 293FT cells transfected with 2 µg of each plasmid for 24 h; lysis in NETN buffer (50 mM Tris-HCl pH 7.5, 150 mM NaCl, 1 mM EDTA, 0.5% NP40), sonicated; IP with anti-polη, anti-Flag or anti-HA antibody, 3 h at 4 °C, protein A sepharose; final wash 300 mM NaCl; western blot; for polη with Flag-PIAS1 also in mock- or Rad18-depleted (siRNA) cells
[1] = biological target: T1, human DNA polymerase eta (polη), wild type, expressed from pcDNA.3.1.zeo-.POLH (human) (UniProt Q9Y253); experiment: co-IP; Supplementary Fig. 9b and 9c; legends not shown, antibody and tags not told; immunoprecipitation from transfected 293FT lysates is the only interaction method given in the methods
T1 sequence: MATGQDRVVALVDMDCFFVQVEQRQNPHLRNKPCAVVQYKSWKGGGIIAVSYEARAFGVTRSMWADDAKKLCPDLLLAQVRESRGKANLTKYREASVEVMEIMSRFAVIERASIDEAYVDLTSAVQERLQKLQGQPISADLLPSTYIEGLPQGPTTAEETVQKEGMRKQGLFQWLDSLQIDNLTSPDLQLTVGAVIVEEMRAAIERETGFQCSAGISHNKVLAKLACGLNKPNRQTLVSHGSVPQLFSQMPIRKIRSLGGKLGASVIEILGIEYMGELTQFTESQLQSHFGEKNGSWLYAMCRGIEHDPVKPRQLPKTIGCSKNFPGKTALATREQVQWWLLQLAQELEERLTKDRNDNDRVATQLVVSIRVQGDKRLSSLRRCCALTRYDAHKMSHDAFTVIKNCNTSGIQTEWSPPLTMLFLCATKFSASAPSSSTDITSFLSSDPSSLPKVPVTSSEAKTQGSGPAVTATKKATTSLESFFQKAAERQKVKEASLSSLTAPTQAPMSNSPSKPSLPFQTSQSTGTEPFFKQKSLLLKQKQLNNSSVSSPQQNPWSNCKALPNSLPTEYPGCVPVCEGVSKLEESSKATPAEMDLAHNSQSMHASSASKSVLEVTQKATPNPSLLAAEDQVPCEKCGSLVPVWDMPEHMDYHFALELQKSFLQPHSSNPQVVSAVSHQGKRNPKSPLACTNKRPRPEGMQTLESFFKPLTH

Flag-PIAS4, Q8N2W9 = biological target: T2, Flag-PIAS4, Q8N2W9; experiment: co-IP; 293FT cells transfected with 2 µg of each plasmid for 24 h; lysis in NETN buffer (50 mM Tris-HCl pH 7.5, 150 mM NaCl, 1 mM EDTA, 0.5% NP40), sonicated; IP with anti-polη, anti-Flag or anti-HA antibody, 3 h at 4 °C, protein A sepharose; final wash 300 mM NaCl; western blot; for polη with Flag-PIAS1 also in mock- or Rad18-depleted (siRNA) cells; settings: remark: other sources report otherwise
T2 chain: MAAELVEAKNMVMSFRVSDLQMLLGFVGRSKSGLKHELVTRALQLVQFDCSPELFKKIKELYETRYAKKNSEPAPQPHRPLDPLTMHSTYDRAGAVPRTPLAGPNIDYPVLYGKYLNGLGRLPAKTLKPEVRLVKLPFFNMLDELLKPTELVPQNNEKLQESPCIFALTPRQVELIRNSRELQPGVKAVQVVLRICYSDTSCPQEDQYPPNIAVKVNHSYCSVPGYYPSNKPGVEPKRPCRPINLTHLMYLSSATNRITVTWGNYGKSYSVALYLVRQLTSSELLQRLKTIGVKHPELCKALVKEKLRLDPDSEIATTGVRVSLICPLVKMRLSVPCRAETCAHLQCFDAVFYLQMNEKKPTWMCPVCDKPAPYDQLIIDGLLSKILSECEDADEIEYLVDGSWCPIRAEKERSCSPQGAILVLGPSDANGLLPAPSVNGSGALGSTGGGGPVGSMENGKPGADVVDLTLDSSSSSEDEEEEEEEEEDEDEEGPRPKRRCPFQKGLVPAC

## HA-Rad18, wild type, expressed from pCMV2-HA-RAD18 (from UniProt Q9NS91 1-495)
Flag-mPIAS1
  binding: binds

## Rad18^1-460 (truncation mutant lacking the C-terminal NLS) (from UniProt Q9NS91 1-460) (domain or fragment)
[1]
  binding: binds

B1: human DNA polymerase eta (polη), wild type, expressed from pcDNA.3.1.zeo-.POLH, Q9Y253 1-713 (protein)
chain: T1 sequence
Flag-PIAS4, Q8N2W9
  binding: binds
